At least one structure is not confirmed: it was looked up by name or label, or the drawing left a doubt.
How the values were obtained:
[1] = system: β-TC-6 cells; experiment: Effect on cAMP level in β-TC-6 cells in vitro; type: cell-based, mouse; details: 2, 10, 50 and 250 nM, with glucose and IBMX, 30 minutes, FIG. 5
[2] = system: β-TC-6 cells; experiment: Effect on insulin secretion level in β-TC-6 cells in vitro; type: cell-based, mouse; details: medium containing high concentration (16.8 mM) of glucose; 3, 30, 300 and 1000 nM; 1 hour, FIG. 6

CCCCCCCCCCCCCCCC(=O)N[C@@H](CCC(=O)NCCCC[C@H](NC(=O)[C@H](C)NC(=O)[C@H](C)NC(=O)[C@H](CCC(N)=O)NC(=O)CNC(=O)[C@H](CCC(=O)O)NC(=O)[C@H](CC(C)C)NC(=O)[C@H](Cc1ccc(O)cc1)NC(=O)[C@H](CO)NC(=O)[C@H](CO)NC(=O)[C@@H](NC(=O)[C@H](CC(=O)O)NC(=O)[C@H](CO)NC(=O)[C@@H](NC(=O)[C@H](Cc1ccccc1)NC(=O)[C@@H](NC(=O)CNC(=O)[C@H](CCC(=O)O)NC(=O)[C@H](C)NC(=O)[C@@H](N)Cc1cnc[nH]1)[C@@H](C)O)[C@@H](C)O)C(C)C)C(=O)N[C@@H](CCC(=O)O)C(=O)N[C@@H](Cc1ccccc1)C(=O)N[C@H](C(=O)N[C@@H](C)C(=O)N[C@@H](Cc1c[nH]c2ccccc12)C(=O)N[C@@H](CC(C)C)C(=O)N[C@H](C(=O)N[C@@H](CCCNC(=N)N)C(=O)NCC(=O)N[C@@H](CCCNC(=N)N)C(=O)NCC(=O)O)C(C)C)[C@@H](C)CC)C(=O)O [Liraglutide]
cAMP level in β-TC-6 cells [1]: concentration gradient-dependent increase
insulin secretion level in β-TC-6 cells, high glucose [2]: concentration gradient-dependent increase
